Binding data for two molecules are collected here from publication doi:10.1101/2020.06.09.142141.

These are yes or no findings as the source states them, for the method shown. Binding can be weak; no strength is given.

This experiment deals with Plasmopara halstedii RXLR effector PhRXLR-C13 (Plasmopara halstedii). Description: two-hybrid.

B1: ANAC016 (NTL3) (protein, UniProt A4FVP6 1-564)
chain: MVDSSRDSCFKAGKFSAPGFRFHPTDEELVVYYLKRKICCKKLRVNAIGVVDVYKVDPSELPGLSMLKTGDRQWFFFTPRNRKYPNAARSSRGTATGYWKATGKDRVIEYNSRSVGLKKTLVFYRGRAPNGERTDWVMHEYTMDEEELGRCKNAKEYYALYKLYKKSGAGPKNGEQYGAPFQEEEWVDSDSEDADSVAVPDYPVVRYENGPCVDDTKFCNPVKLQLEDIEKLLNEIPDAPGVNQRQFDEFVGVPQGNSAEVIQSTLLNNSSGEYIDPRTNGMFLPNGQLYNRDSSFQSHLNSFEATSGMAPLLDNEKEEYIEMNDLLIPELGASSTEKSTEFLNHGEFGDVNEYDQLFNDISVFQGTSTDLSCLSNFTNNTSGQRQQLLYEQFQYQTPENQLNNYMHPSTTLNQFTDNMWFKDDQAALYVQPPQSSSGAFTSQSTGVMPESMNPTMSVNPQYKEGQNGGGTRSQFSSALWELLESIPSTPASACEGPLNQTFVRMSSFSRIRFNGTSVTSRKVTVAKKRISNRGFLLLSIMGALCAIFWVFKATVGVMGRPLLS
B1: the binding entry is “binds”.

B2: ANAC017 (NTL7) (protein, UniProt Q9XIC5 1-557)
chain: MADSSPDSCFKGGKFSAPGFRFHPTDEELVMYYLKRKICRKRLRVNVIGVVDVYKMDPEELPGQSMLKTGDRQWFYFTPRSRKYPNAARSNRGTENGYWKATGKDRVIEYNSRSVGLKKTLVFYRGRAPSGERTDWVMHEYTMDEDELGRCKNPQEYYALYKLFKKSGAGPKNGEQYGAPFQEEEWVDDDNEDVNAIAVAVPEQPVVRYEDARRVDERRLFNPVILQLEDIDELLNGIPNAPGVPQRCIPQVNSEEELQSTLVNNSAREFLPNGQQYNRPSSFDSLETAEVTSAPLVFEKEDFIEMDDLLLIPEFGASSTEKAAQFSNHGEFDDFNEFDQLFHDVSMSLDMEPIDQGTSANLSSLSDSANYTSDQKQQLLYQQFQDQTPENQLNNIMDPSTTLNQITSDIWFEDDQAILFDQQQSFSGAFASPSSGVMPDSTNPTMSVNAQGHEIQNGGGTTSQFSSALWALMDSIPSTPASACEGPLNRTFVRMSSFSRMRFNGKANGTPVSTTIAKKGIRNRGFLLLSIVGALCAIFWVLVATVRVSGRSLLLKD
In the case of B2, the binding result is reported as “no binding”.
